The text below walks through data of publication PMC10901899.

By UniProt entry, the sequences of proteins in these tests, tags left out. Where a name states a change or a piece, a line headed by the entry shows the natural chain unless it says otherwise.
UniProt P25021: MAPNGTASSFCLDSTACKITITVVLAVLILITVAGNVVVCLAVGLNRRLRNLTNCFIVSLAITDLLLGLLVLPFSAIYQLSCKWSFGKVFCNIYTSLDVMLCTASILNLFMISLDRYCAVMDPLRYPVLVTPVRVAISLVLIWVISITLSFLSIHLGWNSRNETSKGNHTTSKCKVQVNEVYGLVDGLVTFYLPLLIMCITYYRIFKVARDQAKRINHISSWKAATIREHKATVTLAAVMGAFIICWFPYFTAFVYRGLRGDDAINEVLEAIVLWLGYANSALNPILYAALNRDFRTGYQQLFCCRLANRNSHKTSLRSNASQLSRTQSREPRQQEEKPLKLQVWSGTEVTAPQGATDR
UniProt P35367: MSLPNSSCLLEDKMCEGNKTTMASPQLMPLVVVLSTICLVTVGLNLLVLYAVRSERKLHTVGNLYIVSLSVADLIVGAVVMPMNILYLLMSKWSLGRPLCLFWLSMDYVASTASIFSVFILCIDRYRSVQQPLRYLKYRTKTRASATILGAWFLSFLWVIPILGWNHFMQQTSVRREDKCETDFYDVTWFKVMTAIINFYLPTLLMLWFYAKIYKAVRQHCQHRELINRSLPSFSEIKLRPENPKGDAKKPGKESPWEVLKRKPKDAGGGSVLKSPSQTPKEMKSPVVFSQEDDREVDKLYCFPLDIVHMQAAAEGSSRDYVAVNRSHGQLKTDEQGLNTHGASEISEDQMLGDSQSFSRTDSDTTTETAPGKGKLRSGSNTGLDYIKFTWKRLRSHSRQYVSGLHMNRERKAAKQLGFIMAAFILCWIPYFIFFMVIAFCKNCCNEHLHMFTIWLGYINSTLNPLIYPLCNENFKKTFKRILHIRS

Results are given in words; binding and its absence hold for the method and conditions named. In cells and extracts the contact can be indirect. Some results given as binding are weak or reduced against the parent protein; the word gives no strength. For some assays here: Sequences can lack the tags named with a protein.

The target of assay [1] is T1, free fatty acid 2 receptor, cell-free synthesized, with C-terminal Strep-tag, in nanodiscs (DOPG) (UniProt O15552).
T1 sequence: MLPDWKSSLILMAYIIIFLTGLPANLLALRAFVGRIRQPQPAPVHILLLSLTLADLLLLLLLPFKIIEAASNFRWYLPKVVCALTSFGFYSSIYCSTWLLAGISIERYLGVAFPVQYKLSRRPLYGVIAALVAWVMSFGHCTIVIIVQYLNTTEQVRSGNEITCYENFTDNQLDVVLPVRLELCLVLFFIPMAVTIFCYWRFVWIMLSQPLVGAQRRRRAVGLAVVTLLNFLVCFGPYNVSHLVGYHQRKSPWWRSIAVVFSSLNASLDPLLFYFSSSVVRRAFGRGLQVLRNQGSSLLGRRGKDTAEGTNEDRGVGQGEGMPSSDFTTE
As to the kind of experiment: condition: 0.5 µM GPCR/ND complexes added to the cells; pull-down; HEK293 cells transfected with Flag-H1R or Flag-H2R; 0.5 µM purified Strep-tagged GPCR/ND (DOPG) complexes nanotransferred into the cells; cells washed and lysed; anti-Strep pulldown with magnetic Strep-Tactin beads; anti-Flag immunoblot; performed once; only the target purified. (Immunoblotting shows a protein as a band on a membrane.)

Assay [2] addresses human histamine 2 receptor, cell-free synthesized, with C-terminal Strep-tag, in nanodiscs (DOPG) (human) (UniProt P25021). Briefly: pull-down; HEK293 cells transfected with Flag-H1R or Flag-H2R; 0.5 µM purified Strep-tagged GPCR/ND (DOPG) complexes nanotransferred into the cells; cells washed and lysed; anti-Strep pulldown with magnetic Strep-Tactin beads; anti-Flag immunoblot; performed once; only the target purified.

Regarding “Flag-tagged H1R expressed in transfected HEK293 cells (from UniProt P35367 1-487) (receptor)”, the figures for the binding result in assay [1] and in assay [2] were “no binding” and “binds”, respectively.
